Source: the supplement of paper PMC10338343
± gives the standard deviation. The entries are a selection whose mix differs from that of the whole data set. Many entries were measured with a wide error.

How the values were obtained:
[1] = system: MILI (PIWIL2) piRISC loaded with piRNA #1 (26 nt); assay: pre-steady-state target cleavage rate (min^-1); higher = faster piRNA-guided slicing of the target; settings: guide: piRNA #1 5'p-UGAGGUAGUAGGUUGUAUAGUAUCCA; auxiliary factor: 500 nM mouse GTSF1
In short: (§1)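 With or without 500 nM GTSF1 partner protein, 1 nM active affinity-purified piRISC carrying one synthetic guide was mixed with 0.1 nM transcribed, DNA-blocked target RNA library in HEPES–potassium acetate buffer at 33 °C for 0–8 or 0–960 min. Uncleaved targets were sequenced and normalised to depth and to weakly complementary targets, three trials were pooled, and k3 was capped at 0.0001 min^-1. The pre-steady-state cleavage rate came from a burst-and-steady-state fit.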

[2] = system: EfPiwi piRISC loaded with piRNA #1 (26 nt); assay: pre-steady-state target cleavage rate (min^-1); guide: piRNA #1 5'p-UGAGGUAGUAGGUUGUAUAGUAUCCA; MIWI and MILI are mouse PIWI proteins and EfPiwi is from a freshwater sponge; tags in brackets are library labels; higher = faster piRNA-guided slicing of the target; settings: auxiliary factor: 500 nM Ephydatia muelleri Gtsf1
In short: as §1

| Sequence | pre-steady-state target cleavage rate [1] | pre-steady-state target cleavage rate [2] |
| --- | --- | --- |
| GGAGACCUAUGAUAUGAAGCCUACUACCUCA | 0.0001 ± 0.029 | 0.001 ± 0.0052 |
| GGAGACCUAUGAUUACAACCUACUAGGAGA [g6:g17:cont:t1A] | 0.000594 ± 0.0095 | 0.000742 ± 0.0083 |
| GGAGAGGAUACUAUACAACCUUCUACGUCA | 0.00117 ± 0.0051 | 0.00356 ± 0.0021 |
| GGAGACCUAUGAUAUGUAGCUACUAGCUCA | 0.000498 ± 0.011 | 0.000542 ± 0.0094 |
| GGAGACCUAACUAUAGAACCUACAACCUCA | 0.00273 ± 0.0042 | 0.000925 ± 0.0098 |
| GGAGUGGAUACUAUACAACCUUCUAGCUCA | 0.00102 ± 0.0043 | 0.00376 ± 0.0018 |
| GGAGACCUAACUAUACGAACCUACUACCUCA | 0.000208 ± 0.049 | 0.00335 ± 0.005 |
| GGAGACCUAACUAUAGAACCUACUACCUCA | 0.131 ± 0.021 | 0.0023 ± 0.0045 |
| GGAGACCUAUCUAUAGAAGCUACUACCUCA | 0.143 ± 0.019 | 0.000289 ± 0.0074 |
| GGAGUGGAUACUUUACAACCUACAACCUCA | 0.0647 ± 0.0091 | 0.00185 ± 0.002 |
| GGAGACGCAUACUAUACAACCUACUACCUCA | 0.268 ± 0.024 | 0.0478 ± 0.018 |
| GGAGACGCUACUAUACAACCUACUACCUCA | 0.228 ± 0.019 | 0.163 ± 0.051 |
| GGAGACCUAUGUGUACAACCUACUACCUCA | 0.0178 ± 0.0035 | 0.00301 ± 0.0033 |
| GGAGACCAUACUAUACAACUCUACUACCUCA | 0.000211 ± 0.0096 | 0.000815 ± 0.0091 |
| GGAGACGAUAGUAUACAACCUACUACGUCA | 0.00324 ± 0.0041 | 0.0019 ± 0.0015 |
| GGAGACCUAUCUAUACAACCUAGUAGCUCA | 0.00169 ± 0.0046 | 0.00367 ± 0.0043 |
| GGAGACCUAUGAUAAGAACCUACAACCUCA | 0.000169 ± 0.019 | 0.000196 ± 0.032 |
| GGAGACCUUACUAUACAACCUACUACCUCU [g2:g22:cont:t1U] | 0.177 ± 0.017 | 1.04 ± 0.39 |
| GGAGACCAUACUAUACAACCUACAUGCUCA | 0.134 ± 0.028 | 0.00144 ± 0.0044 |
| GGAGAGGAUACUAUACAACCUACUACCUCU [g2:g25:cont:t1U] | 0.238 ± 0.025 | 1.56 ± 0.47 |
| GGAGACCUAUGAUUACAAGCUACUACGUCA | 0.00819 ± 0.0037 | 0.00279 ± 0.0042 |
| GGAGACGAAACUAUACAACCUACAACCUCA | 0.133 ± 0.031 | 0.00368 ± 0.0027 |

| Sequence | pre-steady-state target cleavage rate [1] | pre-steady-state target cleavage rate [2] |
| --- | --- | --- |
| GGAGAGGAUUCUAUACAACCUACUACCACA | 0.113 ± 0.011 | 0.00156 ± 0.0022 |
| GGAGACCUAUGUAUACUACCUACUACCUCA | 0.0517 ± 0.008 | 0.00132 ± 0.0032 |
| GGAGACCUAUCUUUAGAACCUACUACCUCA | 0.0437 ± 0.0095 | 0.000784 ± 0.0082 |
| GGAGAGGAUACUAUACAAGGAUGAUGGAGA [g13:g25:cont:t1A] | 0.000294 ± 0.013 | 0.000303 ± 0.013 |
| GGAGACCUAUGUAUACAACAUACUACCUCA | 0.0179 ± 0.0028 | 0.0022 ± 0.0033 |
| GGAGACGAUACUAAACAUCCUACUACCUCA | 0.267 ± 0.021 | 0.00359 ± 0.0026 |
| GGAGUGGUUACUAUACAACCAACUACCUCA | 0.00796 ± 0.0019 | 0.0036 ± 0.0014 |
| GGAGACCAUACUAUACAACUUACUACCUCA | 0.0165 ± 0.0023 | 0.00338 ± 0.0027 |
| GGAGACCAUAGUAUACAUCCUACUACCUCA | 0.19 ± 0.014 | 0.00617 ± 0.0032 |
| GGAGACCUAUGAAAAGAACCUACUACCUCA | 0.00114 ± 0.0039 | 0.000666 ± 0.011 |
| GGAGACCUAUGAUUAGAACCUACUACCUGA | 0.000162 ± 0.019 | 0.000537 ± 0.01 |
| GGAGACCUAUGAAAACUACCUACUACCUCA | 0.0012 ± 0.0046 | 0.000787 ± 0.0069 |
| GGAGACGAUACUAAACUACCUACUACCUCA | 0.24 ± 0.018 | 0.00228 ± 0.0021 |
| GGAGAGGAUACUAUACAUCCUAGUACCUCA | 0.00265 ± 0.0048 | 0.00177 ± 0.0022 |
| GGAGAGGAUACUAUACAACCUACUAGGACA | 0.000996 ± 0.0068 | 0.00237 ± 0.0039 |
| GGAGACCUAUCUAUAGAACCUUCUACCUCA | 0.00178 ± 0.0045 | 0.000109 ± 0.022 |
| GGAGACCUAUGAUAUGAACGUACUACCUCA | 0.000305 ± 0.0076 | 0.00038 ± 0.0082 |
| GGAGACCUAUGAUAACUACCUACAACCUCA | 0.00217 ± 0.0027 | 0.000228 ± 0.014 |
| GGAGACCUAACUAUACAACCUACAUGGAGA [g8:g21:cont:t1A] | 0.00188 ± 0.0068 | 0.000297 ± 0.0098 |
| GGAGACCAUACUAUACAACCGACUACCUCA | 0.00219 ± 0.0041 | 0.00248 ± 0.0025 |
| GGAGACCUAUGAAUAAAACCUACUACCUCA | 0.00212 ± 0.0028 | 0.000517 ± 0.013 |
| GGAGACGAUACUAUACCAACCUACUACCUCA | 0.0605 ± 0.013 | 0.0123 ± 0.0043 |

| Sequence | pre-steady-state target cleavage rate [1] | pre-steady-state target cleavage rate [2] |
| --- | --- | --- |
| GGAGACCUAACUAUACAACCUACUAGCACA | 0.00779 ± 0.0065 | 0.00348 ± 0.0042 |
| GGAGACGAUACUAUAGAACCUAGUACCUCA | 0.00273 ± 0.0037 | 0.0018 ± 0.0015 |
| GGAGUGGAUACUUUAGAACCUACUACCUCA | 0.116 ± 0.0096 | 0.00079 ± 0.0032 |
| GGAGUGGAUAGUAUACAACGUACUACCUCA | 0.0168 ± 0.0038 | 0.00231 ± 0.0021 |
| GGAGACCUAACUAUACAACCUUCUACGUCA | 0.00093 ± 0.016 | 0.00333 ± 0.0039 |
| GGAGACCAUACUAUACAAGCUACAACCUCA | 0.212 ± 0.022 | 0.00169 ± 0.0029 |
| GGAGAGGAUACUAUACAACCUAGUACGUCA | 0.00151 ± 0.0048 | 0.0044 ± 0.0019 |
| GGAGACCUAAGUAUACAACCUACUUCCUCA | 0.0285 ± 0.0069 | 0.00301 ± 0.0041 |
| GGAGACCUUACUAUACAACCUACUUGGUCA | 0.000786 ± 0.0067 | 0.00296 ± 0.004 |
| GGAGACCUUACUAUAGAACCUACUACCACA | 0.0558 ± 0.012 | 0.00169 ± 0.0056 |
| GGAGACGAUACUAUACAACCUUCUACGUCA | 0.00189 ± 0.0048 | 0.00448 ± 0.0019 |
| GGAGACCAUUCUAUACAAGCUACUACCUCA | 0.254 ± 0.018 | 0.00183 ± 0.0027 |
| GGAGACCUUACUAUACAACCUUCUUCCUCA | 0.00391 ± 0.0031 | 0.00255 ± 0.0053 |
| GGAGACCUAACUAUUCAACCUACUACCUCA | 0.138 ± 0.022 | 0.00358 ± 0.0036 |
| GGAGACCAUACUAUAGAACCAACUACCUCA | 0.00109 ± 0.0069 | 0.000572 ± 0.0087 |
| GGAGACGAUACUAUACAACCAUGUACCUCA | 0.00226 ± 0.0027 | 0.00168 ± 0.0029 |
| GGAGACCUAUGAAUAGAUCCUACUACCUCA | 0.00208 ± 0.0027 | 0.00025 ± 0.011 |
| GGAGACGAUACUAUACAACCUUCUACCUCA | 0.0098 ± 0.0026 | 0.00729 ± 0.0029 |
| GGAGACCUAACUAUACAUCCUUCUACCUCA | 0.0117 ± 0.0069 | 0.00277 ± 0.0046 |
| GGAGACCUAUGAUAAGAACCUACUACCUCA | 0.000666 ± 0.0066 | 0.000624 ± 0.0066 |
| GGAGACCAUAGUAUACUACCUACUACCUCA | 0.131 ± 0.013 | 0.00298 ± 0.0038 |
| GGAGACCUAUGUAUAGAACCUUCUACCUCA | 0.00216 ± 0.0027 | < 0.0001 |

An excerpt of these results, with tabs:
Sequence	pre-steady-state target cleavage rate [1]	pre-steady-state target cleavage rate [2]
GGAGUGGAUAGUAUACAACGUACUACCUCA	0.0168 ± 0.0038	0.00231 ± 0.0021
GGAGACCUAACUAUACAACCUUCUACGUCA	0.00093 ± 0.016	0.00333 ± 0.0039
GGAGACCAUACUAUACAAGCUACAACCUCA	0.212 ± 0.022	0.00169 ± 0.0029
GGAGAGGAUACUAUACAACCUAGUACGUCA	0.00151 ± 0.0048	0.0044 ± 0.0019
GGAGACCUAAGUAUACAACCUACUUCCUCA	0.0285 ± 0.0069	0.00301 ± 0.0041
GGAGACCUUACUAUACAACCUACUUGGUCA	0.000786 ± 0.0067	0.00296 ± 0.004
GGAGACCUUACUAUAGAACCUACUACCACA	0.0558 ± 0.012	0.00169 ± 0.0056
GGAGACGAUACUAUACAACCUUCUACGUCA	0.00189 ± 0.0048	0.00448 ± 0.0019
GGAGACCAUUCUAUACAAGCUACUACCUCA	0.254 ± 0.018	0.00183 ± 0.0027
GGAGACCUUACUAUACAACCUUCUUCCUCA	0.00391 ± 0.0031	0.00255 ± 0.0053
GGAGACCUAACUAUUCAACCUACUACCUCA	0.138 ± 0.022	0.00358 ± 0.0036
GGAGACCAUACUAUAGAACCAACUACCUCA	0.00109 ± 0.0069	0.000572 ± 0.0087
GGAGACGAUACUAUACAACCAUGUACCUCA	0.00226 ± 0.0027	0.00168 ± 0.0029
GGAGACCUAUGAAUAGAUCCUACUACCUCA	0.00208 ± 0.0027	0.00025 ± 0.011
GGAGACGAUACUAUACAACCUUCUACCUCA	0.0098 ± 0.0026	0.00729 ± 0.0029
